Test results taken from patent publication US20110104191A1.
No constants are given. Whether binding was seen depends on the method and setting. Binding can be weak; no strength is given.

Target: Salmonella typhi OmpF (Salmonella typhi)
Experiment: phage display panning (Ph.D-7 library, 3 rounds) on purified porin coated on ELISA wells

| Binder | binding |
| --- | --- |
| FHENWPS [OmpF affinity peptide FHENWPS] | binds |
| FHEFWPT [OmpF affinity peptide FHEFWPT] | binds |
